Source: publication PMC9102726
Results are given in words; binding and its absence hold for the method and conditions named. In cells and extracts the contact can be indirect. Some entries that bind do so weakly or less than the wild type.

Chains of the proteins cited; added tags and fusions are not shown.
UniProt P09429: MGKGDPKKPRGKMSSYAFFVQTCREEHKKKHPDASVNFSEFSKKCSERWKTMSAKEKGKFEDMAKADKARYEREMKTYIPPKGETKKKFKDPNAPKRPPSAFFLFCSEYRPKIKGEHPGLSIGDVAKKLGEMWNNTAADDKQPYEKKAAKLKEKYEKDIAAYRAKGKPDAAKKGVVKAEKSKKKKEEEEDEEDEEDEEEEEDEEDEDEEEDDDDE

How the values were obtained:
[1] = biological target: Valosin-containing protein (VCP), endogenous (human (endogenous in Huh7, MHCC-LM3, 293T)) (UniProt P55072); assay: co-IP; endogenous proteins in Huh7 and MHCC-LM3 lysates (RIPA buffer), specific antibody or same-species IgG overnight at 4 °C, protein A/G agarose; both directions
[2] = biological target: GST-tagged VCP fusion protein (UniProt P55072); assay: pull-down; purified GST-tagged proteins incubated with whole lysate of MHCC-LM3 cells at 4 °C overnight; bound proteins analysed by SDS-PAGE and blot; only the target purified
[3] = biological target: His-tagged full-length VCP (wild type) (UniProt P55072); assay: co-IP; 293T cells transfected with His-tagged VCP or its deletion mutants; lysates immunoprecipitated with anti-His antibody; blot for His and HMGB1
[4] = biological target: High-mobility group box 1 (HMGB1), endogenous (human (endogenous in MHCC-LM3, Huh7, 293T)) (UniProt P09429); assay: co-IP; endogenous proteins in Huh7 and MHCC-LM3 lysates (RIPA buffer), specific antibody or same-species IgG overnight at 4 °C, protein A/G agarose; both directions
[5] = biological target: Flag-tagged HMGB1 (wild type) (UniProt P09429); assay: co-IP; 293T cells transfected with Flag-tagged HMGB1 or its deletion mutants; lysates immunoprecipitated with anti-Flag antibody; blot for Flag and VCP

Substance	binding [1]	binding [2]	binding [3]	binding [4]	binding [5]
High-mobility group box 1 (HMGB1), endogenous (from UniProt P09429 1-215)	binds	binds	binds	–	–
Valosin-containing protein (VCP), endogenous (from UniProt P55072 1-806)	–	–	–	binds	binds
